Drawing on PubChem BioAssay AID1347423 (Functional Genomics Laboratory (NCATS/FGL), 2020), this text covers z-score for 28 sequences.

Screen size: about 52,000 sequences; about 210 (0.4%) were called active.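 How the source made its calls: active means gene whose silencing raises cell survival under the drug, median off-target-corrected z-score across its silencing RNAs 2 or more; inactive means the rest.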 This is one part of the list.

This assay is described as follows: Resistance to Poly (ADP-Ribose) Polymerase inhibitor: Gene Identification via Genome-wide siRNA Screen. To be noted: mouse BRCA2 R2336H ES cells, olaparib, CellTiter-Glo viability; stronger effect = higher value. The procedure, abridged:
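Genome-wide siRNA screen (3 siRNAs/gene, 20 nM) in mouse ES cells carrying hypomorphic BRCA2 R2336H; olaparib 500 nM added 48 h post-transfection, CellTiter-Glo viability 72 h later. Normalized to plate-median negative control; MAD z-scores, gene median, seed-adjusted.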
For orientation: Cellular ATP, detected with luciferase, serves as a proxy for viable cell number.
Consider GGGAAUCAGAGGCUGGUAATT against BC023814, for which the z-score is inactive: -0.217. Regarding GGGCUCUCAAUAUUACCUCTT against Car11, the z-score is inactive: -0.743. Consider CGCUAUGAGGCAGCUAAUUTT against Psma6, for which the z-score is inactive: -3.64.

For the sequence GCGAUGACCAAAAAUAUUGTT against Tmc1, the z-score was inactive: 2.23. As to GGAAAGGACAUUGUUGUUCTT against Psma7, the z-score is inactive: 0.172. Turning to GGCAAUCAGCUUCACUGUGTT against Klk7, the z-score is inactive: -0.607. On to GCUGUACGUUUGCACAUUCTT against Rc3h1, for which the z-score is inactive: -2.53. GCGAUUCAUAACACCAUUGTT against Pole3: the z-score was inactive: 0.121.

As to GGACUUGAUUAUCUACACUTT against Stk24, the z-score is inactive: 0.803. The figure for “GGGCAAACCGGAAAAACAGTT against 2600016J21Rik” is inactive: 1.94. Take UACUCGUGGUGUUUGCAAGTT against Olfr1154: the z-score is inactive: 0.96. The figure for “GGAGUAUGAAUGCUAUGUCTT against 9830160G03Rik” is inactive: -0.156; for GGAUGAACCCAGAAAGAUGTT against Gdf5 it is inactive: 0.172.

Turning to GGAGAGUGAGAAGAUCUUGTT against Ecel1, the z-score was inactive: 2.37. On to “GGAGAAGAGGAAAAUGCGUTT against E130201N16Rik”, for which the z-score was inactive: 0.324. Consider GGACUCUCAACUUCCAAUGTT against Spire2, for which the z-score is inactive: 0.184. The figure for “GCUCGAUGGAUUGUAAUCUTT against 2610021K21Rik” is inactive: -1.1; for GGUUAAAAUGUCAUCCUUUTT against Trerf1 it is inactive: 0.976. Under “GGAUGCUGUCACAAAUGUGTT against 6720467C03Rik” stands inactive: -0.397.

Consider CCUCAUCUAUGCAUGUUGUTT against Olfr1394, for which the z-score was inactive: -0.577. On to GGGAUAUGACAGAACCAUATT against Olfr1390, for which the z-score is inactive: 0.207. Turning to CCUUCCUAAUGAUUGCCAATT against Grm7, the z-score is inactive: 0.35. Regarding GGCCUACAAUACCUCCAUUTT against Grid2ip, the z-score is inactive: -0.597.

With GGAACUGCUCGUAGGAAGATT against Btf3, the z-score is inactive: -2.67. Take “CCACCAAAAACAAAGGACCTT against 1700003E24Rik”: the z-score was inactive: 1.82. Regarding GGACUCCUAUCCAUCUAUGTT against Panx3, the z-score is inactive: 0.511.

On to “GGAGAUGCAAAGUCUGUCUTT against 2310015J09Rik”, for which the z-score was inactive: 1.45. Under “GGGACCACUGUGUAUUGACTT against 5730592L21Rik” stands inactive: 0.734.
